# Screen size: about 360,000 compounds; about 9,100 (2.5%) were called active. This list was built around the results that the source calls inconclusive (neither active nor inactive); the mix of calls is not that of the screen. No stated cut-off is given here; in the data, active means max response below about -50%; inconclusive means no clear call, values can overlap the other calls; inactive means above that.
# Amino acid sequences for entries named in this document (tags omitted).
# UniProt P35462, whole entry, looked up: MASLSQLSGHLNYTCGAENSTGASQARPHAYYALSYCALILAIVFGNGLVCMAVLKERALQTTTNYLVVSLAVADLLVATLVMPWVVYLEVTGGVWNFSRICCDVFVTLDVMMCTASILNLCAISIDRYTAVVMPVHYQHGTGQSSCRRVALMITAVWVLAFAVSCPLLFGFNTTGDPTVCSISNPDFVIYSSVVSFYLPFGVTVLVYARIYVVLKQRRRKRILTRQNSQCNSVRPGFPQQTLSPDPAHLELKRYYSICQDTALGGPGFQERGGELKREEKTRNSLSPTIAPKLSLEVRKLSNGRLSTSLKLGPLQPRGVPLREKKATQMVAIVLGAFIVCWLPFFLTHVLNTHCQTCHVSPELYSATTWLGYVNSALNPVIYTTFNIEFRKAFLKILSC
# Molecular target: D(3) dopamine receptor (Homo sapiens) (UniProt P35462)
# Assay: qHTS of D3 Dopamine Receptor Antagonist: qHTS
# Settings: D3R cells, DiscoveRx beta-arrestin luminescence, antagonist mode; hits give low values
# Method in brief: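 Cells expressing the human receptor were seeded at 1500 cells/well, incubated overnight at 37 degrees C in 5% CO2, then exposed to library compounds with dopamine controls for 90 minutes at 37 degrees C before luminescent detection.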
# On the % scale 0 is the no-effect control and ±100 the full control effect.
row,Compound,"max response, negative = inhibition"
1,O=C(NNc1c2ccccc2nc2ccccc12)c1cc2ccccc2cc1O,inconclusive: -33.7%
2,O=Cc1cc(Cl)ccc1OCCN1CCC(Cc2ccccc2)CC1,inconclusive: -46.1%
3,CC1(C)Cc2cccc(OCC(=O)OCc3nnc(-c4ccccc4)o3)c2O1,inconclusive: -35.2%
4,CCCC(O)(c1ccc(CC)cc1)C(CN1CCOCC1)c1ccccc1 (centres undefined),inactive: 12.5%
5,N#C/C(=C\c1cccc(NC(=O)c2ccccc2Cl)c1)C(=O)NCCc1ccccc1,inactive: -25.1%
6,Cc1ccc(N(CC(=O)N2CCc3ccccc32)C2=NC(=O)CS2)cc1,inconclusive: -33.5%
7,O=C(CN1CCN(c2ncc(C(F)(F)F)cc2Cl)CC1)N1CCN(c2ncc(C(F)(F)F)cc2Cl)CC1,active: -60.7%
8,O=C1C=C(c2cccc(Br)c2)C[C@@H](c2ccc(Cl)cc2)C1,inconclusive: -33.1%
9,CCOC(=O)c1c(-c2ccccc2)oc2ccc(OCC(O)CNCCN(C)C)cc12 (centres undefined),inconclusive: -37.2%
10,C=CCn1c(SCn2nnc3ccccc3c2=O)nc2scc(-c3cccs3)c2c1=O,inconclusive: -34.4%
11,CC(C)C(=O)Nc1cccc(C(=O)OCC(=O)c2ccc(Cl)cc2Cl)c1,inactive: 44.2%
12,CCC(C)Sc1ccc(-c2nc3cc(C)ccn3c2NC2CCCCC2)cc1 (centres undefined),inconclusive: -47.3%
13,O=C(NCCN1CCC(n2c(=O)[nH]c3ccccc32)CC1)N1c2ccccc2Sc2ccccc21,active: -111%
14,O=S(=O)(c1ccc(NC(=S)Nc2ccc(OC(F)F)cc2)cc1)N1CCOCC1,inconclusive: -42.2%
15,COc1ccccc1C(CNC(=O)c1cccc(S(=O)(=O)N2c3ccccc3CC2C)c1)N(C)C (centres undefined),inconclusive: -38.2%
16,CC1(Oc2cccc(F)c2)CCN(Cc2ccc3ccccc3c2)C1 (centres undefined),active: -117%
17,Cc1ccc(C)c(NC(=O)CSc2nnc(-c3ccncc3)n2N)c1,active: -70%
18,CCN(CC)CC(=O)Nc1ccc2c(c1)N(C(=O)CN(CC)CC)c1ccccc1CC2,inactive: -7.65%
19,O=C(COC(=O)c1ccccc1F)Nc1cccnc1Cl,inactive: -3.09%
20,CCc1ccc(CN(C)Cc2nc(Cc3ccc(OC)c(OC)c3)no2)nc1,inactive: -19.8%
21,CC1(c2ccc(OCC#N)cc2)C=C(c2ccc(OCC#N)cc2)n2nc(C(F)(F)F)nc2N1 (centres undefined),inconclusive: -33.6%
22,COC(=O)c1c(N)n(-c2ccc(NC(C)=O)cc2)c2nc3ccccc3nc12,inactive: 0%
23,O=C(NCc1ccccc1)C1C(c2ccccc2)=Nc2ccccc2N1C(=O)c1ccncc1 (centres undefined),inconclusive: -43.3%

# 3 compounds picked at random from those above:
row,Compound,"max response, negative = inhibition"
20,CCc1ccc(CN(C)Cc2nc(Cc3ccc(OC)c(OC)c3)no2)nc1,inactive: -19.8%
12,CCC(C)Sc1ccc(-c2nc3cc(C)ccn3c2NC2CCCCC2)cc1 (centres undefined),inconclusive: -47.3%
9,CCOC(=O)c1c(-c2ccccc2)oc2ccc(OCC(O)CNCCN(C)C)cc12 (centres undefined),inconclusive: -37.2%

# Next entries follow.

row,Compound,"max response, negative = inhibition"
1,Cc1ccc2nc(-c3ccco3)c(Cc3cccc(Cl)c3)n2c1,inactive: -5.94%
2,Cc1ccc(C(=O)NCCN2CCC(n3c(=O)[nH]c4ccccc43)CC2)cc1F,active: -70.1%
3,CCOc1ccc(NS(=O)(=O)c2c(C)nc3sc(CC)nn3c2=O)cc1,active: -52.6%
4,Oc1ccc(C(c2nnnn2C2CCCC2)N2CCc3ccccc3C2)cc1 (centres undefined),inconclusive: -42.9%
5,CN(C)c1nc(N)nc2c1ncn2C1OC(CO)CC1O (centres undefined),inactive: -7.07%
6,CCOc1cc(OCC)cc(C(=O)NCCN2CCC(n3c(=O)[nH]c4ccccc43)CC2)c1,active: -95.5%
7,O=C(Nc1ccccc1)c1cc(C2CCCN(C(=O)CCc3ccccc3)C2)on1 (centres undefined),inconclusive: -47.2%
8,O=[N+]([O-])c1ccccc1CNC1CCCc2ccccc21 (centres undefined),inactive: -16.6%
9,O=C(CCCN1CCC(NC(=O)c2ccccc2)CC1)c1ccc(Cl)cc1,inconclusive: -36.4%
10,CN1C(=O)/C(=C/c2ccc(O)c([N+](=O)[O-])c2)N(C)C1=S,inconclusive: -48.8%
11,OCC[C@H]1C[C@@H](O)[C@H](O)[C@@]2(CCCc3ccccc3O2)O1,inactive: -10.4%
12,CCN1CCN(CCC(=O)Nc2cccc(OC)c2)CC1,inconclusive: -34.8%
13,COc1c[nH]n(C2CCCCC2)c(=O)c1=O,inconclusive: -47.6%
14,O=C(/C=C/c1cc2ccccc2o1)c1ccccc1O,inactive: -23.3%
15,O=C1c2ccccc2NC(c2cn[nH]c2-c2ccccc2)N1O (centres undefined),inactive: 2.69%
16,Cc1cccc(C)c1-n1c(C)cc(/C=C2\C(=O)NN(c3ccccc3)C2=O)c1C,inconclusive: -40.1%
17,COC(=O)C1(O)CC(C(C)C)=NN1C(=O)c1ccc(Cl)cc1 (centres undefined),inconclusive: -38.3%
18,Cc1nc(C(=O)Nc2ccccc2Cl)cc2c1[nH]c1ccccc12,inactive: 1.41%
19,COc1ccc(NC(=O)Nc2c(C)n(C)n(-c3ccccc3)c2=O)cc1,inconclusive: -34.2%
20,CCCCNC(=S)NNC(=O)c1ccoc1C,inconclusive: -49.6%
21,COc1ccc(N2CCN(C(=O)c3ccccc3)CC2)c([N+](=O)[O-])c1,inactive: -14.3%
22,CC(C)Cc1ccc(CN2CCCC(NC(=O)CCN3CCCCC3=O)C2)cc1 (centres undefined),inactive: 7.12%
23,COc1ccccc1NC(=O)CSc1nnnn1-c1ccc(C(=O)O)cc1,inactive: 0.143%

# Some values from above:
# In max response, negative = inhibition, `O=C(CCCN1CCC(NC(=O)c2ccccc2)CC1)c1ccc(Cl)cc1` reads inconclusive: -36.4%
# In max response, negative = inhibition, `CC(C)Cc1ccc(CN2CCCC(NC(=O)CCN3CCCCC3=O)C2)cc1` (centres undefined) reads inactive: 7.12%
# In max response, negative = inhibition, `COc1c[nH]n(C2CCCCC2)c(=O)c1=O` reads inconclusive: -47.6%

# Continued.

row,Compound,"max response, negative = inhibition"
1,Cc1cc(Nc2cccc(Cl)n2)n(-c2ccccc2)n1,inconclusive: -30.3%
2,COc1cccc(C(=O)NNC(=O)C(=O)Nc2ccc(C)cc2)c1,inactive: 13.8%
3,COc1ccc(C(CNC(=O)c2oc3c(Cl)cccc3c2C)N2CCCC2)cc1 (centres undefined),inconclusive: -33.3%
4,O=C(Nc1ccc2[nH]c3c(c2c1)CCCC3)c1ccco1,inconclusive: -31.9%
5,COc1ccc(OC)c(NC(=O)CCN2CCN(Cc3ccccc3)CC2)c1,inconclusive: -42.7%
6,Cc1ccc(-n2nc(C)cc2NC(=O)c2ccc(C)s2)cc1,inconclusive: -42%
7,COCCCn1c(C(=O)NCCN2CCOCC2)cc2c(=O)n3cccc(C)c3nc21,active: -54.2%
8,Cn1cccc1-c1cc(C(=O)N/N=C/c2ccc(F)cc2)[nH]n1,active: -82.3%
9,Cc1[nH]c2ccc(-c3n[nH]c(=S)n3Cc3ccccc3)cc2c1C,inactive: -3.35%
10,CSc1ccc(CN2CCCCCC2)cc1,inconclusive: -39.3%
11,O=C(c1ccccc1)N1CCN(Cc2ccccc2Br)CC1,active: -62.4%
12,COc1ccc(C(=O)NNC(=O)c2cccc(S(=O)(=O)N3CCOCC3)c2)cc1,inactive: 7%
13,COc1ccc(C(CNc2ccc(S(=O)(=O)N3CCCC3)cc2[N+](=O)[O-])N2CCCC2)cc1 (centres undefined),inactive: -17.4%
14,O=C(/C=C/c1cn(-c2ccccc2)nc1-c1cccnc1)N1CCCCC1,inactive: 22.8%
15,CCc1ccc(/C=C2/SC(=S)N(CCC(=O)NCCCN3CCOCC3)C2=O)cc1,inactive: 13.5%
16,Cc1cccc(/C=N/NC(=O)c2ccncc2)n1,inconclusive: -30.6%
17,Cc1cc(C)c2nc3sc(C(=O)N4CCOCC4)c(N)c3cc2c1,inconclusive: -36.7%
18,NC(c1ccccc1)c1csc(Nc2ccc(C(=O)NCCO)cc2)n1 (centres undefined),inactive: 0%
19,O=c1cc(N=Nc2ccc(Cl)cc2)[nH]c(=O)[nH]1,inconclusive: -43.1%
20,N#CC1=C(SCc2ccccc2)NC2=C(C(=O)CCC2)C1c1ccc2c(c1)OCO2 (centres undefined),inconclusive: -42.4%
21,CC1=C(C(=O)OCC2CCCO2)C(c2ccccc2Cl)NC(=O)N1 (centres undefined),inconclusive: -35.5%
22,CN(C)CCOc1cccc(Br)c1,inconclusive: -38.6%
23,Fc1cccc(CCN2CCNC[C@H]2Cc2cccc3ccccc23)c1,inactive: 26.7%

row,Compound,"max response, negative = inhibition"
1,COc1ccc(-c2noc(=O)n2Cc2cc(C)ccc2C)cc1,inactive: -0.13%
2,CCOC(=O)C1[C@H]2C(=O)N(C(C)c3ccc(OC)cc3)C[C@]23C=C[C@H]1O3 (some centres undefined),inactive: 23.5%
3,Cc1cc(C(F)(F)F)nc(NNc2nc(C)cc(C(F)(F)F)n2)n1,inactive: 20.2%
4,CN(C)CCCN(C(=O)c1ccc2c(c1)CCCC2)c1nc2ccc(Cl)cc2s1,active: -88.1%
5,CC(=O)NC(c1cccs1)c1cc([N+](=O)[O-])c2cccnc2c1O (centres undefined),inconclusive: -33.5%
6,O=C(Nc1ccc(S(=O)(=O)N2CCOCC2)cc1)c1ccc(CN2CCc3ccccc3C2)cc1,active: -54.2%
7,Cc1ccc(-n2c(=O)[nH]cc(C(=O)Nc3ccc4c(c3)OCO4)c2=O)cc1C,inconclusive: -31.9%
8,CSC(=S)N/N=C(\C)c1ccc(Br)cc1,inactive: 4.53%
9,O=C(c1cccc(F)c1)N1CCN(c2ccc([N+](=O)[O-])c(N3CCCCC3)c2)CC1,inconclusive: -30.5%
10,CCOC(=O)c1c(-c2ccc(C)o2)csc1NC(=S)NC(=O)N(C)C,active: -55%
11,CCOC(=O)N1C(=O)[C@](CC)(c2ccccc2)N1C(=O)OCC,inconclusive: -40.4%
12,N/C(=N\OC(=O)CCCN1C(=O)c2ccccc2C1=O)c1ccccn1,inactive: 1.85%
13,CCN1CCCC1CNC(=O)c1cc([N+](=O)[O-])c(N(C)C)cc1OC (centres undefined),active: -103%
14,CCCC(C(=O)Nc1ccc2c(C)cc(=O)oc2c1)c1ccccc1 (centres undefined),inconclusive: -31.4%
15,Cc1sc2ncnc(SCC(=O)c3ccc4c(c3)OCCO4)c2c1-c1ccccc1,inactive: 11.1%
16,Cc1cc(C)cc(NS(=O)(=O)c2ccc(NC(=S)Nc3ccccc3)cc2)c1,inconclusive: -35.3%
17,CCOC(=O)CC(NC(=O)c1cc2ccccc2oc1=O)c1cccc([N+](=O)[O-])c1 (centres undefined),inconclusive: -44.6%
18,COc1ccc(CCC(=O)OCC(=O)NCc2ccc(OC)c(OC)c2)cc1OC,inconclusive: -37.6%
19,COc1cccc(CNS(=O)(=O)c2cc3c4c(c2)CCN4C(=O)CC3)c1,active: -71.8%
20,CC1CC(C)CN(CC(C)(C)NS(=O)(=O)c2ccc(Cl)cc2)C1 (centres undefined),inconclusive: -45.3%

# Source: PubChem BioAssay AID652054 (National Center for Advancing Translational Sciences (NCATS), 2013)
